According to PubChem BioAssay AID588525 (Broad Institute, 2011):
Inconclusive results, whose numbers are uncertain, are shown with a selection of clear calls. The source made the active and inactive calls. No rule for the calls is given here.

Each molecule was assayed against DNA topoisomerase I (Yersinia pestis CO92) (UniProt A0A2S9PM60) (assay: Y. pestis Topo-I inhibitors, cleavage product readout, dose response, biochemical, Y. pestis CO92, cherry-pick (AID 588525)). Conditions: purified Y. pestis Topo-I, plate reader; at 38 µM (top of the series) unless noted.
With `COc1cccc(/C=C(/C(=O)OCC(=O)NC2CCCC(C)C2C)c2ccccc2)c1` (centres undefined) the activity (cleavage complex accumulation) was inconclusive: -9.84%. In the case of `Cc1ccc(OC(=O)CCC(=O)Oc2ccc(C)cc2C)c(C)c1`, the activity (cleavage complex accumulation) is reported as inconclusive: 29%. `Cc1cccc(OCC(O)Cn2ccnc2C)c1` (centres undefined) was tested, and the activity (cleavage complex accumulation) was inconclusive: 29.7%. In the case of `CCCCOC(=O)Nc1nnc(/C=C/c2ccc(OC)cc2)s1`, the activity (cleavage complex accumulation) is reported as inactive: 33.7%. In the case of `O=C(c1cc(-c2ccccc2Cl)nc2ccc(Br)cc12)N1CCN(c2ccccn2)CC1`, the activity (cleavage complex accumulation) is reported as inconclusive: 23.9%. `CC(=O)c1ccccc1OCc1ccc(C(=O)c2ccccc2)cc1` was tested, and the activity (cleavage complex accumulation) was inactive: 36.3%. `COc1ccc(-n2c(-c3ccc(F)cc3)cnc2SCC(=O)NCc2ccco2)cc1` was tested, and the activity (cleavage complex accumulation) was inconclusive: -14.2%. `COc1ccc(CNC(=O)CN(Cc2ccc(C)cc2)S(=O)(=O)c2ccc(Cl)cc2)cc1` was tested, and the activity (cleavage complex accumulation) was inconclusive: 13.6%. With `COc1cccc(N2CC(C(=O)N3CCC4(CC3)CC(=O)c3ccccc3O4)CC2=O)c1` (centres undefined) the activity (cleavage complex accumulation) was inconclusive: 2.88%. With `Cc1ccc2c(Cl)c(C)c(N3CCCCC3)nc2n1` the activity (cleavage complex accumulation) was inactive: 24.9% [at 10 µM]. For `CCCCn1c(C)cc(C)c(S(=O)(=O)c2ccccc2C)c1=O`, the activity (cleavage complex accumulation) was inactive: 30.2% [at 19.5 µM]. In the case of `O=C(Nc1ccccc1N1CCCCC1)c1cccc(OC(F)F)c1`, the activity (cleavage complex accumulation) is reported as inconclusive: 28.6%. In the case of `CCCn1c(N2CCC(Cc3ccccc3)CC2)nc2c1c(=O)[nH]c(=O)n2C`, the activity (cleavage complex accumulation) is reported as inconclusive: -12.1%. For `CCN(CC)c1ncnc2scc(C3COc4ccccc4O3)c12` (centres undefined), the activity (cleavage complex accumulation) was inconclusive: 3.84%. With `COc1cccc(-c2noc(Cn3nc(C(=O)O)c4ccccc4c3=O)n2)c1` the activity (cleavage complex accumulation) was inconclusive: 33.8%. For `C=CCn1c(SCC(=O)c2ccc(OC)cc2)nnc1-c1cc2cccc(OC)c2o1`, the activity (cleavage complex accumulation) was inconclusive: 33.4%. With `O=C(NCCn1cc(SCc2ccccc2)c2ccccc21)c1ccccc1F` the activity (cleavage complex accumulation) was inactive: 26.2% [at 5 µM]. In the case of `Cc1cccc(C)c1OCc1cc(C(=O)N2CCC(C3CCCCC3)C2)no1` (centres undefined), the activity (cleavage complex accumulation) is reported as inconclusive: -5.33%. With `COc1ccc(NC(=O)CN2CCN(c3nc(-c4ccc(F)cc4)cs3)CC2)c(OC)c1` the activity (cleavage complex accumulation) was inconclusive: 34%. In the case of `O=C(NCC1(c2ccccc2)CCCC1)C1(c2ccccc2)CCCC1`, the activity (cleavage complex accumulation) is reported as inactive: 18.5%. For `CCCOc1ccc(C2=CC(=O)C[C@H](c3ccc(OC)cc3)C2)cc1`, the activity (cleavage complex accumulation) was inconclusive: 9.16%. For `CCCCCCCCNS(=O)(=O)CCNCc1ccccc1OC`, the activity (cleavage complex accumulation) was inconclusive: -17.4%. In the case of `CC(Oc1cccc(Cl)c1)C(=O)Nc1cc(S(=O)(=O)N2CCOCC2)ccc1N1CCCCC1` (centres undefined), the activity (cleavage complex accumulation) is reported as inconclusive: -6.1%. With `CN(CC(=O)Nc1ccccc1Oc1ccccc1)Cc1ccccc1F` the activity (cleavage complex accumulation) was inconclusive: 5.38%. For `Cc1ccc(OCc2cc(C(=O)N3CCc4sccc4C3)no2)cc1C`, the activity (cleavage complex accumulation) was inconclusive: 7.75%. For `COc1ccccc1C(=O)NCCC(=O)N1CC=C(c2ccccc2)CC1`, the activity (cleavage complex accumulation) was inactive: 25.7%. `Cc1ccccc1Cn1cc(CCC(=O)N2CCOCC2)c2ccccc21` was tested, and the activity (cleavage complex accumulation) was inconclusive: -9.14%. `Cc1cc(NC(=O)C(C)SCC(=O)N(C)CC(=O)Nc2ccc(F)cc2)no1` (centres undefined) was tested, and the activity (cleavage complex accumulation) was inactive: 16.3%. With `Clc1ccc(OCc2nn3c(C4CCCCC4)nnc3s2)cc1` the activity (cleavage complex accumulation) was inconclusive: -21.9%. With `CCCCn1c(=O)[nH]c(=O)c2c1nc(-c1ccsc1)n2Cc1ccccc1` the activity (cleavage complex accumulation) was inconclusive: 17.9%. `COC(=O)CSc1nc(SCc2ccc(C)cc2)nc2c1CCCC2` was tested, and the activity (cleavage complex accumulation) was inconclusive: 14.3% [at 19.5 µM]. For `CC(C)C(=O)Nc1cccc(COc2ccc(CN(Cc3ccccc3)C(=O)OC(C)(C)C)cc2)c1`, the activity (cleavage complex accumulation) was inconclusive: 6.94%. In the case of `CCCC(=O)N1N=C(c2ccccc2)CC1c1cn(C)c2ccccc12` (centres undefined), the activity (cleavage complex accumulation) is reported as inconclusive: -3.98%. For `Clc1ccc(CSC(Cn2ccnc2)c2ccc(Cl)cc2Cl)cc1` (centres undefined), the activity (cleavage complex accumulation) was inconclusive: -23.4%.
